Measured data: PubChem BioAssay AID652272 (Drosophila RNAi Screening Center, 2013)

Aim: 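Finding fly genes that regulate Hedgehog signal transduction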 (primary screen)
Cells: Drosophila clone 8 (Cl8) cells
Reagent: long dsRNA against Drosophila genes
Detection: 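Plate reader light from a firefly reporter under a ptc promoter fragment that responds to Hedgehog, with Renilla light as transfection reference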
Direction: firefly Hh reporter signal: higher = more ptc reporter light; Renilla reference signal: higher = more Renilla control light
Call rule: 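Called a hit if the two-replicate mean z-score lies below -2 or above +3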
Meaning of the calls: active = hit: reporter lowered or raised; inactive = not a hit
The screen tested about 21,000 reagents; shown is a random part of those that have a named target and a result. Of all reagents, 503 (2.4%) are marked active. 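Raw plate light values, not normalised; calls rest on replicate z-scores that were not deposited; hits include reporter decreases as well as increases.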 Entries without a mark were called inactive. No sequences are given here. The record does not give: the amount of reagent, the time to read-out.

Yif1 [DRSC15817] scored firefly Hh reporter signal, replicate 1 = 56951; firefly Hh reporter signal, replicate 2 = 1.20e5; Renilla reference signal, replicate 1 = 2128; Renilla reference signal, replicate 2 = 3462.
Silencing of CG33272 [DRSC09116] gave: firefly Hh reporter signal, replicate 1 = 85866; firefly Hh reporter signal, replicate 2 = 1.42e5; Renilla reference signal, replicate 1 = 2579; Renilla reference signal, replicate 2 = 8455.
Silencing of wdn [DRSC17095] resulted in: firefly Hh reporter signal, replicate 1 = 94179; firefly Hh reporter signal, replicate 2 = 1.02e5; Renilla reference signal, replicate 1 = 1528; Renilla reference signal, replicate 2 = 1494.
Depletion of trbd [DRSC16494] came out at: firefly Hh reporter signal, replicate 1 = 78571; firefly Hh reporter signal, replicate 2 = 50076; Renilla reference signal, replicate 1 = 3991; Renilla reference signal, replicate 2 = 2491.

2 entries from above, showing only “firefly Hh reporter signal, replicate 1”:
Yif1 [DRSC15817]: 56951
CG33272 [DRSC09116]: 85866

Further reagents follow:
For Ns2 [DRSC06993], the entry reads firefly Hh reporter signal, replicate 1 = 86856; firefly Hh reporter signal, replicate 2 = 71571; Renilla reference signal, replicate 1 = 4739; Renilla reference signal, replicate 2 = 3557.
Knock-down of Stacl [DRSC05553] resulted in: firefly Hh reporter signal, replicate 1 = 61547; firefly Hh reporter signal, replicate 2 = 98772; Renilla reference signal, replicate 1 = 8231; Renilla reference signal, replicate 2 = 4970.
Stacl [DRSC06260] gave firefly Hh reporter signal, replicate 1 = 82257; firefly Hh reporter signal, replicate 2 = 64821; Renilla reference signal, replicate 1 = 2164; Renilla reference signal, replicate 2 = 4401.
With knock-down of Stacl [DRSC06261] the results were firefly Hh reporter signal, replicate 1 = 82748; firefly Hh reporter signal, replicate 2 = 58464; Renilla reference signal, replicate 1 = 2278; Renilla reference signal, replicate 2 = 4321.
Stacl [DRSC06777] scored firefly Hh reporter signal, replicate 1 = 90721; firefly Hh reporter signal, replicate 2 = 59858; Renilla reference signal, replicate 1 = 2656; Renilla reference signal, replicate 2 = 4135.
Depletion of Stacl [DRSC07091] gave: firefly Hh reporter signal, replicate 1 = 1.78e5 (active); firefly Hh reporter signal, replicate 2 = 74898; firefly Hh reporter signal, replicate 3 = 71484; Renilla reference signal, replicate 1 = 13494; Renilla reference signal, replicate 2 = 3837.
JMJD7 [DRSC09703] scored firefly Hh reporter signal, replicate 1 = 6.11e5; firefly Hh reporter signal, replicate 2 = 1.31e5; Renilla reference signal, replicate 1 = 5492; Renilla reference signal, replicate 2 = 5492.
With knock-down of CG10062 [DRSC05960], the record shows firefly Hh reporter signal, replicate 1 = 1.32e5; firefly Hh reporter signal, replicate 2 = 1.02e5; Renilla reference signal, replicate 1 = 6977; Renilla reference signal, replicate 2 = 4685.
